Only a part is listed here, and it is no random draw.
Compound: COC(=O)C#Cc1ccccc1 [methyl 3-phenylpropiolate]
Assay: log2 ratio of iodoacetamide-alkyne labeling of the cysteine site, DMSO over compound (competition); higher = stronger covalent engagement of the cysteine by the compound, active = 1 or more
Conditions: 500 µM; treatment time 1 h; system: HEK293T cell lysate
How it was run: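 Reporter intensities give each cysteine's log2 competition ratio as the mean of control channels over the mean of compound channels. The samples were HEK293T lysate (2 mg/mL) given vehicle or electrophile (500 µM, 1 h, ambient temperature), then iodoacetamide alkyne (1 h), followed by click coupling to sCIP-TMT reagents, pooling, trypsin digestion overnight at 37 °C, streptavidin enrichment, acid elution, Orbitrap Eclipse LC-MS/MS with FAIMS and FragPipe quantification. Duplicate channels and three replicates were run, and cysteines quantified in only one replicate were discarded.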

Amino acid sequences for entries named in this document (tags omitted). A change or cut given only in a name is not applied to a line headed by its entry.
UniProt P52732: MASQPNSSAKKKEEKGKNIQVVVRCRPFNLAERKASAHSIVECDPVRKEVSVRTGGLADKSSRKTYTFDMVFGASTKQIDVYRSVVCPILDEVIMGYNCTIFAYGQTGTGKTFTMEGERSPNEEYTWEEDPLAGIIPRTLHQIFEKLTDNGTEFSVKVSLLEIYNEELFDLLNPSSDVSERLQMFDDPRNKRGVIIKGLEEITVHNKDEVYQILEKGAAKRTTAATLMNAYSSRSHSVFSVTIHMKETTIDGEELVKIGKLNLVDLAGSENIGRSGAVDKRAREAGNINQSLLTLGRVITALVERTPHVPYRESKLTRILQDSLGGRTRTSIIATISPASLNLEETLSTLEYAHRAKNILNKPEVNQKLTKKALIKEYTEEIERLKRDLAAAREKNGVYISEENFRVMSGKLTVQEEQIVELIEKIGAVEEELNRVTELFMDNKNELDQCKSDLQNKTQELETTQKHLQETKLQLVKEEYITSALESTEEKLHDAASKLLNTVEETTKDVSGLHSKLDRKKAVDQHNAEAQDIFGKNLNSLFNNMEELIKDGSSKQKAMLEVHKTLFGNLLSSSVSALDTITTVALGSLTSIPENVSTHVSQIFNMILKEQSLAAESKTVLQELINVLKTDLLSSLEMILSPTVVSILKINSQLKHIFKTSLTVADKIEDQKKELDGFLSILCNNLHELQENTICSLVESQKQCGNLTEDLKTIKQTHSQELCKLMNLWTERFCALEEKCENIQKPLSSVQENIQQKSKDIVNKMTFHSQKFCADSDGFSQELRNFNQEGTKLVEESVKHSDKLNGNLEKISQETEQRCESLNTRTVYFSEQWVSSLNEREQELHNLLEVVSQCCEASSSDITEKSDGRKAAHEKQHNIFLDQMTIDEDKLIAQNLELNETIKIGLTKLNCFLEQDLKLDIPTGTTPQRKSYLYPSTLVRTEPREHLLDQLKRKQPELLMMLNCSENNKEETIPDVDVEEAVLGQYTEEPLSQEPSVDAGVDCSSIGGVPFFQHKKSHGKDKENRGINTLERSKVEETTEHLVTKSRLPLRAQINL
UniProt P53384: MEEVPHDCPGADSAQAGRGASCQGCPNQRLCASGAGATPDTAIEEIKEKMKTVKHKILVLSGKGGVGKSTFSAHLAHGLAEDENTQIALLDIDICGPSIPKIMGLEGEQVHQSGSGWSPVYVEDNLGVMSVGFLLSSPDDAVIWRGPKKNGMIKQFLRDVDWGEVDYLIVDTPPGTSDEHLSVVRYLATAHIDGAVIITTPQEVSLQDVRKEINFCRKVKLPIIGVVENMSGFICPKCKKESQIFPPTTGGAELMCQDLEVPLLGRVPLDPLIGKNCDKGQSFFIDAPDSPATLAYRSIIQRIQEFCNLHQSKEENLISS
UniProt P53992: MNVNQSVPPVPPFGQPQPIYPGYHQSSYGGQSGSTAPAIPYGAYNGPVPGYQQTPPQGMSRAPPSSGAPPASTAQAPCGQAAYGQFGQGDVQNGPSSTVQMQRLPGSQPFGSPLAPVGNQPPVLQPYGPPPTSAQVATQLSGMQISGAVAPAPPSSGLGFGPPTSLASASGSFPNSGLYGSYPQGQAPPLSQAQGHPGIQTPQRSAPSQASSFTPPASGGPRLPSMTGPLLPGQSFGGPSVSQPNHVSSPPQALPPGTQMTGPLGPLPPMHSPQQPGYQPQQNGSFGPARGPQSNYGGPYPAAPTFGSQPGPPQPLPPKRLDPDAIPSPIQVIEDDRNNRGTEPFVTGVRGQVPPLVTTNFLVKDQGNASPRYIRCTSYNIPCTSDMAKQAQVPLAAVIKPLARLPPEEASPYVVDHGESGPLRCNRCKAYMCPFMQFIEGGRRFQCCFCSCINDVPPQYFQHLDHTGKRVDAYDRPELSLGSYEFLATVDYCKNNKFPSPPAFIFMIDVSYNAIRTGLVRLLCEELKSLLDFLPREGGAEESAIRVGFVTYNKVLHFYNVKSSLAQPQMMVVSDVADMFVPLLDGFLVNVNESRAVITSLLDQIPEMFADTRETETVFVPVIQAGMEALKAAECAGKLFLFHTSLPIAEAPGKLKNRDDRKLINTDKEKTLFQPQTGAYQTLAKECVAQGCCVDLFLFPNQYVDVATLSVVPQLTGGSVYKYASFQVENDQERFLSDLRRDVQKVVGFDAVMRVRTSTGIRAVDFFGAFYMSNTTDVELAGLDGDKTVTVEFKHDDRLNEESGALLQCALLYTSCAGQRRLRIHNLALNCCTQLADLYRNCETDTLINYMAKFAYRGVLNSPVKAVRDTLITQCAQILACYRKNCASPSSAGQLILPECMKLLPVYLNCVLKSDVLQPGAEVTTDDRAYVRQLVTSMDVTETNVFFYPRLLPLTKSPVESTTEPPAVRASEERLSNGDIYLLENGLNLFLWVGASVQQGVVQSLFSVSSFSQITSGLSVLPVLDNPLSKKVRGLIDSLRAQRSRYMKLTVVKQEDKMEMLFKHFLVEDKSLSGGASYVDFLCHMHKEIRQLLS
UniProt P54278: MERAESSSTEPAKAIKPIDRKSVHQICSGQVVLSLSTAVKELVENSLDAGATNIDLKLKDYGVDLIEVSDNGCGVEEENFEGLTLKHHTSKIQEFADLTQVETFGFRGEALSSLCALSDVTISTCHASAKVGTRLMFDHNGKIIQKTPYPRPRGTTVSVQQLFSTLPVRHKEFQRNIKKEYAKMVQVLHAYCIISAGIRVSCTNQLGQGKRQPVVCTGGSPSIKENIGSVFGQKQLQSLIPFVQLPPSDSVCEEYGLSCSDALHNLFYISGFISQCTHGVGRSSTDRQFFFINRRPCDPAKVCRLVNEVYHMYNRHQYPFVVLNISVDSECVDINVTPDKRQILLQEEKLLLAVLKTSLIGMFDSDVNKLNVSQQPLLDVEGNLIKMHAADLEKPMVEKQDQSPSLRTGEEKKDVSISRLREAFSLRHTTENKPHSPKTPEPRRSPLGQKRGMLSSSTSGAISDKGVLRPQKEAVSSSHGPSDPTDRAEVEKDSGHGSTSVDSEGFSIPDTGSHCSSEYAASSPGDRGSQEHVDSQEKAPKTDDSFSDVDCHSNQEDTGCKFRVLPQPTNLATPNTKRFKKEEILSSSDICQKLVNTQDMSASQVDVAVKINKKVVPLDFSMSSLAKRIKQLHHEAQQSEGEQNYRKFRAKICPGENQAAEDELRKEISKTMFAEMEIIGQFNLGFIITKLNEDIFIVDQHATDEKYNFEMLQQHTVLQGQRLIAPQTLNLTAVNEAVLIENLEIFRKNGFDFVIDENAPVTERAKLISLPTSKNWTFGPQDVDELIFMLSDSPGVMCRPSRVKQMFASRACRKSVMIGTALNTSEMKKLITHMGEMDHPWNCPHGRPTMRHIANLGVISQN
UniProt P55265: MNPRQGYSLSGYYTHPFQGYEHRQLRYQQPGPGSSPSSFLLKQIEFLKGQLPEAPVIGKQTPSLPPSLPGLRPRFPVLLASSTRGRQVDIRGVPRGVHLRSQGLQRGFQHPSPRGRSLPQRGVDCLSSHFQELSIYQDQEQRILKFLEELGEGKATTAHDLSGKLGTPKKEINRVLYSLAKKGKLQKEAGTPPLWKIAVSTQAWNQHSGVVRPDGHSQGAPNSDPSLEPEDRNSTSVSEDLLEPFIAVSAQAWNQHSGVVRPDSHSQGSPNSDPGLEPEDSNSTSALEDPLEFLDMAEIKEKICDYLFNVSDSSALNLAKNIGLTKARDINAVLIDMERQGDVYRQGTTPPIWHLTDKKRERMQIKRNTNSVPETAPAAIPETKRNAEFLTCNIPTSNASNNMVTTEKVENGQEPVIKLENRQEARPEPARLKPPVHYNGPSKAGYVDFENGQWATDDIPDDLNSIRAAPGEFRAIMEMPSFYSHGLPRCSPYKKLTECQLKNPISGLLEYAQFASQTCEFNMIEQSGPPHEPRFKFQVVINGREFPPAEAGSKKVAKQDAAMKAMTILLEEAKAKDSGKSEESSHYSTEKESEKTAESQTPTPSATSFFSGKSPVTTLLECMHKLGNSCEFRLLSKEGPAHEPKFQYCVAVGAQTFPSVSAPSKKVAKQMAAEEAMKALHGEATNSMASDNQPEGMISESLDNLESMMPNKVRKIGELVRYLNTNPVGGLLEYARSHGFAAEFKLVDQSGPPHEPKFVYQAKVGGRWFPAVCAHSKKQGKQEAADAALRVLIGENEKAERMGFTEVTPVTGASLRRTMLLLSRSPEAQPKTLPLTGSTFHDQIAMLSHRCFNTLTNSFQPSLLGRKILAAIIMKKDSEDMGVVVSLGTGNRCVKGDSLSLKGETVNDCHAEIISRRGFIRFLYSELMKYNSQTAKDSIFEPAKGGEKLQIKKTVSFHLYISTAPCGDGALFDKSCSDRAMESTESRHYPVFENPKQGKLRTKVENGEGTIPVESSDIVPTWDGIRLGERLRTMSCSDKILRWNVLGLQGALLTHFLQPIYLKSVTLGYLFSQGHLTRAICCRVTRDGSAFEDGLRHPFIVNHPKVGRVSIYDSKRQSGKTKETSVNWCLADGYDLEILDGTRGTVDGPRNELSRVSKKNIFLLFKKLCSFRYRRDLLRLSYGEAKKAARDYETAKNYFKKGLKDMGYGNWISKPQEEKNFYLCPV
UniProt P53609, whole entry, looked up: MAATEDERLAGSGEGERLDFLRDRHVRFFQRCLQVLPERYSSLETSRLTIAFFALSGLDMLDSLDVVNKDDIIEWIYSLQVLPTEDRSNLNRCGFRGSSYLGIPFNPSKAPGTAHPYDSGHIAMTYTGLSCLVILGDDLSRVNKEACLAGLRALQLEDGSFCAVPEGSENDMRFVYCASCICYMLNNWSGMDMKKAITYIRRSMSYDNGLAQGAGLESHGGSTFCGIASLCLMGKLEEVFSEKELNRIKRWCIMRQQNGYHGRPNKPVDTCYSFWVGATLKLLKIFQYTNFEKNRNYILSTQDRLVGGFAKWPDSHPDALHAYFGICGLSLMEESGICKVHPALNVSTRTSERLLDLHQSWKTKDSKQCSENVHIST
UniProt P55795: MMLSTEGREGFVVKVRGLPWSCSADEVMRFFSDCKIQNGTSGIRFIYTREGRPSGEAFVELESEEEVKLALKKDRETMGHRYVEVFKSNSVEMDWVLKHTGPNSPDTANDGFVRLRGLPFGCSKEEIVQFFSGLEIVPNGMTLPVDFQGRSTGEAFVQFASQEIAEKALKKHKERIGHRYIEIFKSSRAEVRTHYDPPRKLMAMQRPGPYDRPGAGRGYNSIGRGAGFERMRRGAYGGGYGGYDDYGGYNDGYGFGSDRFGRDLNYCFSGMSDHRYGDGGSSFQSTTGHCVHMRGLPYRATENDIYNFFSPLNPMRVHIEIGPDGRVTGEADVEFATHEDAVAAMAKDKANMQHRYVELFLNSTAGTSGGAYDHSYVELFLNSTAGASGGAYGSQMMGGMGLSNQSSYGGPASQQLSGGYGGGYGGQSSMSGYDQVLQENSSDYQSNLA
UniProt P55072, whole entry, looked up: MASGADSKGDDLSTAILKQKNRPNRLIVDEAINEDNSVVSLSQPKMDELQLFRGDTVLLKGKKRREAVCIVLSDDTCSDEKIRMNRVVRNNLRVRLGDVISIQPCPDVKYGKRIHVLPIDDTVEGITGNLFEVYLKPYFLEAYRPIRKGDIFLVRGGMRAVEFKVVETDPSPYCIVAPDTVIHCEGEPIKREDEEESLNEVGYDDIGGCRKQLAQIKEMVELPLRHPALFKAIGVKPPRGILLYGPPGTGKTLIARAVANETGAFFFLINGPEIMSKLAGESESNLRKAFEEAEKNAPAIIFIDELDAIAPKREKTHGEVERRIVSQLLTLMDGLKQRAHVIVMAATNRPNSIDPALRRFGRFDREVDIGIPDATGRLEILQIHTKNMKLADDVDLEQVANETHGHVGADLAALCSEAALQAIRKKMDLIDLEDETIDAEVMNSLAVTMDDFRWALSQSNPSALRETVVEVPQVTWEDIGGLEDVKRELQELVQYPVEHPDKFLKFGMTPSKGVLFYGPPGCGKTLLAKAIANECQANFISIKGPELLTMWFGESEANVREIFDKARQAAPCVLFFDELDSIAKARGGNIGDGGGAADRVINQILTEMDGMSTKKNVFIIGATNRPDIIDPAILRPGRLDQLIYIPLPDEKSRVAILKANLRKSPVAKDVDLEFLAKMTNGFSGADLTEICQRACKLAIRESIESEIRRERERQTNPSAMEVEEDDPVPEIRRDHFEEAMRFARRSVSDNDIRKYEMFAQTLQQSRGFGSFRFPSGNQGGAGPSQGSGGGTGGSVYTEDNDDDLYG
UniProt P53597: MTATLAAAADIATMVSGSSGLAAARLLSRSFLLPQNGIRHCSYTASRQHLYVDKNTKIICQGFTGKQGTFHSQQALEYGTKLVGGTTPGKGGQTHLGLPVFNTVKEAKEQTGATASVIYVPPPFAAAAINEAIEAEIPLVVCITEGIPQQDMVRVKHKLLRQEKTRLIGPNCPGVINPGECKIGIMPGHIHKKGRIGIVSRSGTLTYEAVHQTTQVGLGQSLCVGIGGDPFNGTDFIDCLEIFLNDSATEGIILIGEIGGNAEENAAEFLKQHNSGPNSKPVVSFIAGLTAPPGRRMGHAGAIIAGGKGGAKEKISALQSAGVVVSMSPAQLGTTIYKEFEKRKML

Target | log2 ratio of iodoacetamide-alkyne labeling
KIF11 C773 (UniProt P52732) | inactive: 0.48
COPB1 C888 (UniProt P53618) | inactive: 0.31
NUBP1 C277 (UniProt P53384) | inactive: 0.727
SEC24C C433 (UniProt P53992) | active: 1.1
PMS2 C798 (UniProt P54278) | inactive: -0.143
ADAR C1224 (UniProt P55265) | inactive: 0.987
PGGT1B C369 (UniProt P53609) | inactive: 0.515
NUBP1 C235 (UniProt P53384) | inactive: 0.337
UniProt P52564_C38 | inactive: 0.302
HNRNPH2 C267 (UniProt P55795) | inactive: 0.292
GEMIN4 C210 (UniProt P57678) | inactive: 0.946
UniProt P55072_C415 | inactive: -0.0571
SUCLG1 C60 (UniProt P53597) | inactive: 0.351
UniProt P62249_C25 | inactive: 0.47

Part of the list above in another layout:
Target,log2 ratio of iodoacetamide-alkyne labeling
NUBP1 C235 (UniProt P53384),inactive: 0.337
GEMIN4 C210 (UniProt P57678),inactive: 0.946
SUCLG1 C60 (UniProt P53597),inactive: 0.351

Source: the supplement of paper PMC11006884
